Laboratory results reported in the supplement of paper PMC10849652.
Some of the results follow.

By UniProt entry, the sequences of proteins in these tests, tags left out. Where a name states a change or a piece, a line headed by the entry shows the natural chain unless it says otherwise.
UniProt Q96A72, whole entry, looked up: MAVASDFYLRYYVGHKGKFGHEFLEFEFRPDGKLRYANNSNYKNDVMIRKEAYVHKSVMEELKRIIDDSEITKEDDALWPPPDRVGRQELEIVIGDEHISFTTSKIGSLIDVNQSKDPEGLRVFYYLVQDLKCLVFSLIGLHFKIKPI
UniProt Q9Y2E5: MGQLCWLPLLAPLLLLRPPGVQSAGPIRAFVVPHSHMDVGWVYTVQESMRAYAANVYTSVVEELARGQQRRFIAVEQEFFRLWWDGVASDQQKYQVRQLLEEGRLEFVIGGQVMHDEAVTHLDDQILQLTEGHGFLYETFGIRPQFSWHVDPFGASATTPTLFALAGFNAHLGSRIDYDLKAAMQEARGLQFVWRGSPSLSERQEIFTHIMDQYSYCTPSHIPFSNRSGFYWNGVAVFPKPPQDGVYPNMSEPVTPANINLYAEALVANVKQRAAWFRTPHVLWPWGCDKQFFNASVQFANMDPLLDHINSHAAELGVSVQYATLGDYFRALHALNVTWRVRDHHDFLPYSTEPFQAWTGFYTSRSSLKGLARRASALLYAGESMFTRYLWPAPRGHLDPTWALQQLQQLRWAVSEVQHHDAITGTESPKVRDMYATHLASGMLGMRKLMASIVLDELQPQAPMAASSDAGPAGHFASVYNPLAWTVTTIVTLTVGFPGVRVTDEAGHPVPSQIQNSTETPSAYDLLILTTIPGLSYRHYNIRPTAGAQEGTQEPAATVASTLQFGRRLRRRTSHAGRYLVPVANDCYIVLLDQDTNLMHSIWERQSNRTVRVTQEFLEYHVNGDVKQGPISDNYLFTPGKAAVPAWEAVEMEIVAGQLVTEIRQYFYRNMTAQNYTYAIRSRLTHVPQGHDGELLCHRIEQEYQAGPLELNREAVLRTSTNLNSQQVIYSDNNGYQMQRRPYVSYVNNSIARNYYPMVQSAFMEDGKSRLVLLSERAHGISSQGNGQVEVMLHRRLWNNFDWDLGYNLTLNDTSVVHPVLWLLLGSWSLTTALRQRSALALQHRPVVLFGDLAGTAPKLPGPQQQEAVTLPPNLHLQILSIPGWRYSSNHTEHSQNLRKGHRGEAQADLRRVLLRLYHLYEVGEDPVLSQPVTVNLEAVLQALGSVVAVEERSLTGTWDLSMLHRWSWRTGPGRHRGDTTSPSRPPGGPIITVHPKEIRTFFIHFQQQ
UniProt Q9UFC0: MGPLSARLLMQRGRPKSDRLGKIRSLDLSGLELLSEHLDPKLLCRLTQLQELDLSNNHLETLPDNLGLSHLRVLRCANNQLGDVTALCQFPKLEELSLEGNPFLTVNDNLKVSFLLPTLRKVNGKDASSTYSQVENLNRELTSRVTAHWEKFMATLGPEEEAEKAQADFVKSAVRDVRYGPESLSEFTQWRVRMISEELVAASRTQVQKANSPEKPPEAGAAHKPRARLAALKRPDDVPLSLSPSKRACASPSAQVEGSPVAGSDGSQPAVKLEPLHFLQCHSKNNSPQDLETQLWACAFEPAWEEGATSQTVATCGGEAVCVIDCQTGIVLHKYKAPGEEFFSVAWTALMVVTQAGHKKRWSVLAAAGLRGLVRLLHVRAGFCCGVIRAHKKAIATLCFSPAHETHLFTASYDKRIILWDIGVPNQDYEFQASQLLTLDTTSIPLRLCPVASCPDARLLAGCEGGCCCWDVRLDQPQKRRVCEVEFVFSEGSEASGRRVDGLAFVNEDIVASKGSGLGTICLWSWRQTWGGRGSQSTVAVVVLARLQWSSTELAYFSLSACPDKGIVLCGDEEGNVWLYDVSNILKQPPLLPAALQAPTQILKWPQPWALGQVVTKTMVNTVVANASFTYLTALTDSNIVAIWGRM
UniProt Q8WXG6, whole entry, looked up: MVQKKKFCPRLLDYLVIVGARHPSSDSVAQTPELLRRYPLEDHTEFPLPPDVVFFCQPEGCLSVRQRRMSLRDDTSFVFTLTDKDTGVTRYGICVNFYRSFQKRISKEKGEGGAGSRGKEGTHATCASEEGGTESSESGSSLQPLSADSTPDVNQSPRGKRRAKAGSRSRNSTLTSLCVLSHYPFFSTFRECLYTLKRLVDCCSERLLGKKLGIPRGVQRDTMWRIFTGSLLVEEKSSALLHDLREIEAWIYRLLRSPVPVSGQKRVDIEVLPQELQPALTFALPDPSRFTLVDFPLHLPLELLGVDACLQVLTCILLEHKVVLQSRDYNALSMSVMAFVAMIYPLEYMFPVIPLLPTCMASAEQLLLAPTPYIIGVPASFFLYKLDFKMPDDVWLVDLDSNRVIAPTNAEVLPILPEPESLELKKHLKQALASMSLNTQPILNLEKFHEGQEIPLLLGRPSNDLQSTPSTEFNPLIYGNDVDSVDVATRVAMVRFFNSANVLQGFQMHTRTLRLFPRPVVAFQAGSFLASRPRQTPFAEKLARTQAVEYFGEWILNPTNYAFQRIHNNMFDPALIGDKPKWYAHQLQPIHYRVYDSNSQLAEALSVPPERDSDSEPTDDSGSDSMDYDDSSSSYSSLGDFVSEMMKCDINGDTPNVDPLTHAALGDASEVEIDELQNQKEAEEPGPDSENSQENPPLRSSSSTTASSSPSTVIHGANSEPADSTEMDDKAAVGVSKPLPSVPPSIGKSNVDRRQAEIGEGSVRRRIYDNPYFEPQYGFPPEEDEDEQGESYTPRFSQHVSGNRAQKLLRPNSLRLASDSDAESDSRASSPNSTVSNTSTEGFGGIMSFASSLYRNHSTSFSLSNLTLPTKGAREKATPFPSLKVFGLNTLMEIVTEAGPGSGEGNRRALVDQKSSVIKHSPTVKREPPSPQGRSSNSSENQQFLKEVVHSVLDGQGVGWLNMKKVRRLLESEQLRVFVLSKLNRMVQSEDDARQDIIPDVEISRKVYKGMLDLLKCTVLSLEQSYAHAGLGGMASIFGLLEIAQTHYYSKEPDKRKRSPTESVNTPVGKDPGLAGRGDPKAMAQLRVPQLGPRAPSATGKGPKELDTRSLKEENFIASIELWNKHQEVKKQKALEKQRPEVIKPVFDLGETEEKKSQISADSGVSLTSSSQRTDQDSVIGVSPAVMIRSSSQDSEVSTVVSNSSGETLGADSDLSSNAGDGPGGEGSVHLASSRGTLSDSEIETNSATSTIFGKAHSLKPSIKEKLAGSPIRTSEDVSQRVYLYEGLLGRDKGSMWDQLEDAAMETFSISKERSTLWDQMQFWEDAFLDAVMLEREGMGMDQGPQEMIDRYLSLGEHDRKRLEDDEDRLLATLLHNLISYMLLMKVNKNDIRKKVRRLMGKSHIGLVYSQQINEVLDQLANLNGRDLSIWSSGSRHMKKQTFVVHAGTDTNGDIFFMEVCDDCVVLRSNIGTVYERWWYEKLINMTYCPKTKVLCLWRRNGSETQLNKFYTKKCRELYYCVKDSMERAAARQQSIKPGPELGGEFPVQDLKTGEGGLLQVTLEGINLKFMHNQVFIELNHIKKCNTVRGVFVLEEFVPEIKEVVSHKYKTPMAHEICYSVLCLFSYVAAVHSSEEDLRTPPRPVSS
UniProt Q5TCQ9: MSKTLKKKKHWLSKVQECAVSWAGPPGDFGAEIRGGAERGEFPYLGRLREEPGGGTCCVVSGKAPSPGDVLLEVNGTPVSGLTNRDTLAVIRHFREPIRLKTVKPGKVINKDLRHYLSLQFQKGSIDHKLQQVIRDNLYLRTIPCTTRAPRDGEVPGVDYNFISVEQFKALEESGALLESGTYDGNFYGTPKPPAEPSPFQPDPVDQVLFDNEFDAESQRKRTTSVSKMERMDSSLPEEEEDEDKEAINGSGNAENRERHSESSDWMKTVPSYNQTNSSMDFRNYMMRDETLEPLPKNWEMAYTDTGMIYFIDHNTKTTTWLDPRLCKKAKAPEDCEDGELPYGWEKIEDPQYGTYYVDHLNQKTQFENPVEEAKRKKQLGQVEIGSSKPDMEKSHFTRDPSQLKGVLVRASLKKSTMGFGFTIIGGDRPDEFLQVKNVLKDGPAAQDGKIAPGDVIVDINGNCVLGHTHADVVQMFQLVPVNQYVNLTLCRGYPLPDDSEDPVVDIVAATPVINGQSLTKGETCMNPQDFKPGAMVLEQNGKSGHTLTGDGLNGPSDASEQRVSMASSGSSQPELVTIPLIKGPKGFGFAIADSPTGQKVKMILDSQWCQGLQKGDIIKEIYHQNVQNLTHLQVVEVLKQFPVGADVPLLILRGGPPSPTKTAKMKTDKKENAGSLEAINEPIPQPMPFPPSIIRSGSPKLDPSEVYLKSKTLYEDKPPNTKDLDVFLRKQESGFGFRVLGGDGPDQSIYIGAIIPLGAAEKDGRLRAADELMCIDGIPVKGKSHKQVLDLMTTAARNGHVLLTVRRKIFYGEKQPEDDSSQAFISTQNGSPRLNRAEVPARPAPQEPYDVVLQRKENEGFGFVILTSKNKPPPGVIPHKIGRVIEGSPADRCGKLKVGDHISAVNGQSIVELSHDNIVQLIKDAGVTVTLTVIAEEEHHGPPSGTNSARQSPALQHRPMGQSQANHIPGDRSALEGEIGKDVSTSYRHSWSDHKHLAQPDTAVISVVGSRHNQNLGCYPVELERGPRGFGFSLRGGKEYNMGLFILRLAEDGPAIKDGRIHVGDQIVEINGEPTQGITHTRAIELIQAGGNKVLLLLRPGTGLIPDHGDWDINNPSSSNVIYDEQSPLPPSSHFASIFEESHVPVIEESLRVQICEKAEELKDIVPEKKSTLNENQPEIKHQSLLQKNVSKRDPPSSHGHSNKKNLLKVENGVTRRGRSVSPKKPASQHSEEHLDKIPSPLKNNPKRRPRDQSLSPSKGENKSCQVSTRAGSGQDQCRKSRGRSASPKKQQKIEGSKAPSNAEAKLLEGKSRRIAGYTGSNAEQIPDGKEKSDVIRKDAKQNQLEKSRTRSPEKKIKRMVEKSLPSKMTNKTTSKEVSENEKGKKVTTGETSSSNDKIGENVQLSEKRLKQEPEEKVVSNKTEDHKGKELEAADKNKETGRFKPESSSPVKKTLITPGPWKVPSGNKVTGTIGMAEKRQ
UniProt P53778: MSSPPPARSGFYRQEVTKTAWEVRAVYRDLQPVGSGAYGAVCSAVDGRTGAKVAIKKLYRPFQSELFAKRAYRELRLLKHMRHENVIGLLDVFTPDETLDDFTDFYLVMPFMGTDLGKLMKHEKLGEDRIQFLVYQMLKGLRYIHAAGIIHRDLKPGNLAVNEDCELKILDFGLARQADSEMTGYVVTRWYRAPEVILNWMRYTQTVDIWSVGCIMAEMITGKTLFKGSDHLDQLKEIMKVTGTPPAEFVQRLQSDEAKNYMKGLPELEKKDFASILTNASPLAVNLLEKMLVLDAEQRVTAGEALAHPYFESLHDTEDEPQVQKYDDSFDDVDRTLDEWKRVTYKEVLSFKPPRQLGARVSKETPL
UniProt Q9Y6D9: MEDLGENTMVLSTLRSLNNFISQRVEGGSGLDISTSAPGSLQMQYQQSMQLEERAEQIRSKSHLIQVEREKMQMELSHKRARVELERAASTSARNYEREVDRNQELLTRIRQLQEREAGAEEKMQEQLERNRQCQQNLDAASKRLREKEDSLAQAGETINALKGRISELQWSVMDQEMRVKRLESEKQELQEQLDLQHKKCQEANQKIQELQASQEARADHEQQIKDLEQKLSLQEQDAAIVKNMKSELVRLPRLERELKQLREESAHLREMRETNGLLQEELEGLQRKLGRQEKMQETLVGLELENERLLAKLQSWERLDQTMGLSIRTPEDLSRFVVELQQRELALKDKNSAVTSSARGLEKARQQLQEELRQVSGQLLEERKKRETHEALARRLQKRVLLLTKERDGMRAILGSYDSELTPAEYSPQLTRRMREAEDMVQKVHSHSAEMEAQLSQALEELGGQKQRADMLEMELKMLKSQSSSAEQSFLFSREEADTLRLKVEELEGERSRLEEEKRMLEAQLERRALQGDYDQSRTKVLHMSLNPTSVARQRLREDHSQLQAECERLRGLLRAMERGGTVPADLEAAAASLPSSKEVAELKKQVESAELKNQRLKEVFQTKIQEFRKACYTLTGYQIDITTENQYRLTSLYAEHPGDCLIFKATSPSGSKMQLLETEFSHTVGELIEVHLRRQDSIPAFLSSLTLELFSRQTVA
UniProt P36941: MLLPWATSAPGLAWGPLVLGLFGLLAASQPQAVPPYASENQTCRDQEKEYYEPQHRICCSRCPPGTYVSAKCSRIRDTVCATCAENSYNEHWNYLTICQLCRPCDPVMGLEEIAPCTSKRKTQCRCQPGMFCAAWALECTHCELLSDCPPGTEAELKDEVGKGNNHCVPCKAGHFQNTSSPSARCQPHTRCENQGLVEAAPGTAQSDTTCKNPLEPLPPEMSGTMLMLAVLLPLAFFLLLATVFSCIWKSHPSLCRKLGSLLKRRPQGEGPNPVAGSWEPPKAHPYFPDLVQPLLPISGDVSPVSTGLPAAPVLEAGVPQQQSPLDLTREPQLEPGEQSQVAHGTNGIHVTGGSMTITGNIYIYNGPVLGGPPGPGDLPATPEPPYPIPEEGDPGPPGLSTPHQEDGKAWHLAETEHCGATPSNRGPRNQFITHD

Assays:
Assay in all cases: log2 fold change, soluble protein after heating vs DMSO (PISA); higher = thermal stabilisation; K562 cells, 10 uM, 30 min; active = over 0.2 and 3.5 SD of the protein, either way, in both replicates (recomputed)
[1] = compound: COC1=CC=C(C=C1)CN2C=CC3=C2C=C(C=C3)C(=O)NO
How it was run: (§1)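 For each measurement, 10 μM compound was applied for 30 min to K562 cells at 2×10^6 cells/mL. Aliquots were heated for 3 min across 48°C-58°C, pooled, and extracted in PBS with 0.5% NP-40 at 4°C; the supernatant after 21,000xg for 90 min was soluble protein. This was quantified by TMTpro 16plex LC-MS/MS with channel sums equalised, and thermal stability was reported relative to control samples from duplicates, on a log2 fold-change scale.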

filanesib = compound: CON(C)C(=O)N1N=C(c2cc(F)ccc2F)S[C@@]1(CCCN)c1ccccc1 [filanesib]
How it was run: as §1

zotarolimus = compound: CO[C@H]1C[C@@H]2CC[C@@H](C)[C@@](O)(O2)C(=O)C(=O)N2CCCC[C@H]2C(=O)O[C@H]([C@H](C)C[C@@H]2CC[C@H](n3cnnn3)[C@H](OC)C2)CC(=O)[C@H](C)/C=C(\C)[C@@H](O)[C@@H](OC)C(=O)[C@H](C)C[C@H](C)/C=C/C=C/C=C/1C [zotarolimus]
How it was run: as §1

idasanutlin = compound: COc1cc(C(=O)O)ccc1NC(=O)[C@@H]1N[C@@H](CC(C)(C)C)[C@](C#N)(c2ccc(Cl)cc2F)[C@H]1c1cccc(Cl)c1F [idasanutlin]
How it was run: as §1

alisertib = compound: COc1cc(Nc2ncc3c(n2)-c2ccc(Cl)cc2C(c2c(F)cccc2OC)=NC3)ccc1C(=O)O [alisertib]
How it was run: as §1

[2] = compound: COc1cc2nc(-c3cc(F)ccc3O)nc(N[C@@H]3CNC[C@H]3C(C)(C)O)c2cc1OC
How it was run: as §1

gefitinib = compound: COc1cc2ncnc(Nc3ccc(F)c(Cl)c3)c2cc1OCCCN1CCOCC1 [gefitinib]
How it was run: as §1

[3] = compound: COc1cccc2cc(-c3nc([C@H]4CC[C@H](C(=O)O)CC4)n4ncnc(N)c34)[nH]c12
How it was run: as §1

lapatinib = compound: CS(=O)(=O)CCNCc1ccc(-c2ccc3ncnc(Nc4ccc(OCc5cccc(F)c5)c(Cl)c4)c3c2)o1 [lapatinib]
How it was run: as §1

pictilisib = compound: CS(=O)(=O)N1CCN(Cc2cc3nc(-c4cccc5[nH]ncc45)nc(N4CCOCC4)c3s2)CC1 [pictilisib]
How it was run: as §1

[4] = compound: CS(=O)(=O)c1ccc(-c2cnc(N)c(C(=O)Nc3ccccc3)n2)cc1
How it was run: as §1

crizotinib = compound: C[C@@H](Oc1cc(-c2cnn(C3CCNCC3)c2)cnc1N)c1c(Cl)ccc(F)c1Cl [crizotinib]
How it was run: as §1

[5] = compound: C[C@@H]1COCCN1C2=NC(=NC(=C2)C3(CC3)S(=O)(=O)C)C4=C5C=CNC5=CC=C4
How it was run: as §1

[6] = compound: C[C@H](C1=CC=C(C=C1)C(=O)NC2=C3C=CNC3=NC=C2)N
How it was run: as §1

gandotinib = compound: Cc1cc(Nc2cc(CN3CCOCC3)c3nc(C)c(Cc4ccc(Cl)cc4F)n3n2)n[nH]1 [gandotinib]
How it was run: as §1

[7] = compound: Cc1cc(SCc2sc(-c3ccc(C(F)(F)F)cc3)nc2C)ccc1OCC(=O)O
How it was run: as §1

doramapimod = compound: Cc1ccc(-n2nc(C(C)(C)C)cc2NC(=O)Nc2ccc(OCCN3CCOCC3)c3ccccc23)cc1 [doramapimod]
How it was run: as §1

ispinesib = compound: Cc1ccc(C(=O)N(CCCN)[C@@H](c2nc3cc(Cl)ccc3c(=O)n2Cc2ccccc2)C(C)C)cc1 [ispinesib]
How it was run: as §1

duvelisib = compound: C[C@H](Nc1ncnc2nc[nH]c12)c1cc2cccc(Cl)c2c(=O)n1-c1ccccc1 [duvelisib]
How it was run: as §1

tozasertib = compound: Cc1cc(Nc2cc(N3CCN(C)CC3)nc(Sc3ccc(NC(=O)C4CC4)cc3)n2)n[nH]1 [tozasertib]
How it was run: as §1

Row | Target | log2 fold change [1] | log2 fold change (filanesib) | log2 fold change (zotarolimus) | log2 fold change (idasanutlin) | log2 fold change (alisertib) | log2 fold change [2] | log2 fold change (gefitinib) | log2 fold change [3] | log2 fold change (lapatinib) | log2 fold change (pictilisib) | log2 fold change [4] | log2 fold change (crizotinib) | log2 fold change [5] | log2 fold change [6] | log2 fold change (gandotinib) | log2 fold change [7] | log2 fold change (doramapimod) | log2 fold change (ispinesib) | log2 fold change (duvelisib) | log2 fold change (tozasertib)
1 | MAGOHB (UniProt Q96A72) | inactive: -0.012 | inactive: 0.018 | inactive: 0.054 | inactive: -0.027 | inactive: 0.011 | inactive: 0.144 | inactive: 0 | inactive: 0.024 | inactive: -0.018 | inactive: 0.005 | inactive: 0.005 | active: 0.324 | inactive: 0.013 | inactive: -0.131 | inactive: 0.084 | inactive: 0.05 | inactive: -0.016 | inactive: 0.076 |  | 
2 | MAN2B2 (UniProt Q9Y2E5) | inactive: -0.077 | inactive: -0.027 |  | inactive: -0.012 | inactive: 0.022 | inactive: -0.038 | inactive: 0.044 | inactive: 0.075 | inactive: -0.026 |  | inactive: 0.051 | inactive: -0.014 | inactive: 0.055 |  |  | inactive: 0.004 | inactive: 0.017 | inactive: -0.147 |  | 
3 | LRWD1 (UniProt Q9UFC0) | inactive: 0.11 | inactive: -0.141 | inactive: 0.121 | inactive: -0.028 | inactive: -0.041 | inactive: 0.07 | inactive: 0.013 | inactive: 0.144 | inactive: 0.093 |  | inactive: 0 | inactive: -0.442 | inactive: 0.064 | inactive: -0.023 |  | inactive: 0.076 | inactive: 0 | inactive: -0.05 | inactive: 0.143 | inactive: 0.165
4 | MADD isoform 2 (UniProt Q8WXG6) | inactive: 0.069 | inactive: 0.043 | inactive: 0.156 | inactive: 0.04 | inactive: -0.06 | inactive: 0.123 | inactive: 0.019 | inactive: -0.043 | inactive: -0.037 |  | inactive: -0.086 | inactive: -0.076 | inactive: 0.057 | inactive: 0.205 |  | inactive: 0.099 | inactive: 0.026 | inactive: -0.124 | inactive: -0.026 | inactive: -0.068
5 | LYN isoform 2 (UniProt P07948) | inactive: -0.2 | inactive: -0.212 | inactive: -0.054 | inactive: -0.027 |  | inactive: 0.074 | inactive: 0.069 |  | inactive: -0.046 |  | active: -0.791 | inactive: -0.211 | inactive: -0.281 | inactive: -0.294 |  |  | inactive: 0.159 |  |  | 
6 | MAGI3 isoform 1 (UniProt Q5TCQ9) | inactive: 0.235 | inactive: 0.013 |  | inactive: -0.244 | inactive: -0.133 |  |  | inactive: 0.059 |  |  | inactive: 0.181 | inactive: 0.067 | inactive: 0.007 |  |  | inactive: 0.082 | inactive: 0.038 |  | inactive: -0.116 | inactive: -0.035
7 | MAPK14 isoform 2 (UniProt Q16539) | inactive: 0 | inactive: 0.016 | inactive: -0.033 | inactive: -0.018 | inactive: -0.058 | inactive: -0.005 | inactive: 0.811 | inactive: 0.319 | inactive: -0.034 | inactive: -0.114 | inactive: 0.087 | inactive: -0.062 | inactive: -0.018 | inactive: -0.013 | inactive: -0.022 | inactive: 0.017 |  | inactive: -0.038 |  | 
8 | MAPK12 (UniProt P53778) | inactive: 0.066 | inactive: -0.062 | inactive: 0.026 | inactive: -0.072 | inactive: -0.115 | inactive: 0.084 | inactive: -0.269 | inactive: 0.093 | inactive: -0.056 | inactive: 0.062 | inactive: -0.005 |  | inactive: 0.105 | inactive: -0.106 | inactive: 0.037 | inactive: 0.01 |  | inactive: -0.036 |  | 
9 | MAD1L1 (UniProt Q9Y6D9) | inactive: 0.076 |  | inactive: -0.061 | inactive: 0.056 | inactive: 0.135 | inactive: 0.01 |  | inactive: -0.117 | inactive: 0.061 | inactive: 0.235 |  | inactive: -0.08 | inactive: -0.021 | inactive: 0.524 | inactive: -0.053 |  | inactive: -0.156 | inactive: -0.099 |  | inactive: -0.137
10 | LTBR (UniProt P36941) | inactive: 0.03 | inactive: -0.028 | inactive: -0.224 | inactive: -0.06 |  | inactive: 0.059 |  |  | inactive: 0.006 | inactive: 0.001 | inactive: 0.058 | inactive: 0.089 | inactive: -0.064 | inactive: 0.024 | inactive: -0.083 | inactive: -0.103 | inactive: 0.05 | inactive: -0.02 | inactive: -0.016 | inactive: -0.146
11 | MAP3K20 (UniProt Q9NYL2) | inactive: 0.04 | inactive: 0.075 | inactive: 0.033 | inactive: 0.064 |  | inactive: 0.048 | inactive: -0.042 | inactive: -0.059 | inactive: 0 | inactive: -0.02 | inactive: -0.003 | inactive: -0.01 | inactive: -0.065 | inactive: 0.059 | inactive: -0.025 | inactive: 0.053 | inactive: -0.072 | inactive: -0.141 |  | 
12 | MAGEC2 (UniProt Q9UBF1) | inactive: 0.018 | inactive: -0.032 | inactive: 0.039 | inactive: -0.045 | inactive: -0.044 | inactive: 0.015 | inactive: -0.018 | inactive: -0.005 | inactive: -0.004 | inactive: 0.058 | inactive: 0.008 | inactive: 0.049 | inactive: 0.009 | inactive: 0.081 | inactive: 0.055 | inactive: -0.036 | inactive: -0.036 | inactive: -0.012 |  | 

Shown as tab-separated lines: part of the list above
Row	Target	log2 fold change [1]	log2 fold change (filanesib)	log2 fold change (zotarolimus)	log2 fold change (idasanutlin)	log2 fold change (alisertib)	log2 fold change [2]	log2 fold change (gefitinib)	log2 fold change [3]	log2 fold change (lapatinib)	log2 fold change (pictilisib)	log2 fold change [4]	log2 fold change (crizotinib)	log2 fold change [5]	log2 fold change [6]	log2 fold change (gandotinib)	log2 fold change [7]	log2 fold change (doramapimod)	log2 fold change (ispinesib)	log2 fold change (duvelisib)	log2 fold change (tozasertib)
4	MADD isoform 2 (UniProt Q8WXG6)	inactive: 0.069	inactive: 0.043	inactive: 0.156	inactive: 0.04	inactive: -0.06	inactive: 0.123	inactive: 0.019	inactive: -0.043	inactive: -0.037		inactive: -0.086	inactive: -0.076	inactive: 0.057	inactive: 0.205		inactive: 0.099	inactive: 0.026	inactive: -0.124	inactive: -0.026	inactive: -0.068
5	LYN isoform 2 (UniProt P07948)	inactive: -0.2	inactive: -0.212	inactive: -0.054	inactive: -0.027		inactive: 0.074	inactive: 0.069		inactive: -0.046		active: -0.791	inactive: -0.211	inactive: -0.281	inactive: -0.294			inactive: 0.159			
